Results from patent publication EP4477665A1 (AffyXell Therapeutics Co., Ltd., dated 2024).
Results are given in words; binding and its absence hold for the method and conditions named. Some binding calls cover weakened binding; strength is not graded here. Values belong to the binder of their own block, whether it stands above or below them.

Target: T1, human CD40L (hCD40L antigen) (human, UniProt P29965 113-261, limits assumed)
T1 sequence (looked up): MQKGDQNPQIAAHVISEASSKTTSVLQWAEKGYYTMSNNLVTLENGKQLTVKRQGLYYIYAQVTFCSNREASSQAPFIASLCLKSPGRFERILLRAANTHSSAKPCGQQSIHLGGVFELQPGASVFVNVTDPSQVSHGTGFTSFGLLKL
Assay: ELISA, bacterial lysate on immobilized human CD40L, anti-Myc detection

binding: binds
B1: clone 295 (designed binder)
chain: MIPGGLSEAKPATPEIQEIVDKVKPQLEEKTGETYGKLEAVQYKTQVVREDLDLFYTGTNYYIKVRAGDNKYMHLKVFKSLEFILQPWWYEDLVLTGYQVDKNKDDELTGF

binding: binds
B4: clone 313 (designed binder)
chain: MIPGGLSEAKPATPEIQEIVDKVKPQLEEKTGETYGKLEAVQYKTQVVGQYWFWAPGGTNYYIKVRAGDNKYMHLKVFKSLPSSGGGPKWEDLVLTGYQVDKNKDDELTGF

binding: binds
B8: clone 310 (designed binder)
chain: MIPGGLSEAKPATPEIQEIVDKVKPQLEEKTGETYGKLEAVQYKTQVVFKKWWWKYKGTNYYIKVRAGDNKYMHLKVFKSLRVDEHYIQFEDLVLTGYQVDKNKDDELTGF

binding: binds
B9: clone 233 (designed binder)
chain: MIPGGLSEAKPATPEIQEIVDKVKPQLEEKTGETYGKLEAVQYKTQVVLQDQWPWRDGTNYYIKVRAGDNKYMHLKVFKSLTYGKKWYSWEDLVLTGYQVDKNKDDELTGF

binding: binds
B12: clone 283 (designed binder)
chain: MIPGGLSEAKPATPEIQEIVDKVKPQLEEKTGETYGKLEAVQYKTQVVHVLKVSSVSGTNYYIKVRAGDNKYMHLKVFKSLFYYRKRYDREDLVLTGYQVDKNKDDELTGF

binding: binds
B17: clone 301 (designed binder)
chain: MIPGGLSEAKPATPEIQEIVDKVKPQLEEKTGETYGKLEAVQYKTQVVGNVQEDWHIGTNYYIKVRAGDNKYMHLKVFKSLFSEDLTLNGEDLVLTGYQVDKNKDDELTGF

binding: binds
B20: clone 306 (designed binder)
chain: MIPGGLSEAKPATPEIQEIVDKVKPQLEEKTGETYGKLEAVQYKTQVVRVWPWTWDRGTNYYIKVRAGDNKYMHLKVFKSLEQWLPNPYFEDLVLTGYQVDKNKDDELTGF

binding: binds
B21: clone 234 (designed binder)
chain: MIPGGLSEAKPATPEIQEIVDKVKPQLEEKTGETYGKLEAVQYKTQVDAGTNYYIKVRAGDNKYMHLKVFKSLYFYRHWEDREDLVLTGYQVDKNKDDELTGF

binding: binds
B25: clone 312 (designed binder)
chain: MIPGGLSEAKPATPEIQEIVDKVKPQLEEKTGETYGKLEAVQYKTQVVQRETHILWSGTNYYIKVRAGDNKYMHLKVFKSLWFDNLHNNFEDLVLTGYQVDKNKDDELTGF

binding: binds
B26: clone 284 (designed binder)
chain: MIPGGLSEAKPATPEIQEIVDKVKPQLEEKTGETYGKLEAVQYKTQVVYQDYDSATHGTNYYIKVRAGDNKYMHLKVFKSLYQYRNPIDKEDLVLTGYQVDKNKDDELTGF

binding: binds
B33: clone 298 (designed binder)
chain: MIPGGLSEAKPATPEIQEIVDKVKPQLEEKTGETYGKLEAVQYKTQVVHYRIITHWEGTNYYIKVRAGDNKYMHLKVFKSLVRAFLYYKDEDLVLTGYQVDKNKDDELTGF

binding: binds
B34: clone 302 (designed binder)
chain: MIPGGLSEAKPATPEIQEIVDKVKPQLEEKTGETYGKLEAVQYKTQVVGWSASYPESGTNYYIKVRAGDNKYMHLKVFKSLTQWEFIEWPEDLVLTGYQVDKNKDDELTGF

binding: binds
B35: clone 303 (designed binder)
chain: MIPGGLSEAKPATPEIQEIVDKVKPQLEEKTGETYGKLEAVQYKTQVVYQFEHISYGGTNYYIKVRAGDNKYMHLKVFKSLFTYRLPQHREDLVLTGYQVDKNKDDELTGF

Continued, binder first:

B2: clone 289 (designed binder)
chain: MIPGGLSEAKPATPEIQEIVDKVKPQLEEKTGETYGKLEAVQYKTQVVAWVKEHNLIGTNYYIKVRAGDNKYMHLKVFKSLYDQNQWSPHEDLVLTGYQVDKNKDDELTGF
binding: binds

B3: clone 293 (designed binder)
chain: MIPGGLSEAKPATPEIQEIVDKVKPQLEEKTGETYGKLEAVQYKTQVVWYAWQEGWQGTNYYIKVRAGDNKYMHLKVFKSLFRKKWAQLWEDLVLTGYQVDKNKDDELTGF
binding: binds

B5: clone 281 (designed binder)
chain: MIPGGLSEAKPATPEIQEIVDKVKPQLEEKTGETYGKLEAVQYKTQVVAVFDYADPSGTNYYIKVRAGDNKYMHLKVFKSLPYRYRTHHKEDLVLTGYQVDKNKDDELTGF
binding: binds

B6: clone 305 (designed binder)
chain: MIPGGLSEAKPATPEIQEIVDKVKPQLEEKTGETYGKLEAVQYKTQVVESYAAIFWGGTNYYIKVRAGDNKYMHLKVFKSLWGEIQHWRQEDLVLTGYQVDKNKDDELTGF
binding: binds

B7: clone 296 (designed binder)
chain: MIPGGLSEAKPATPEIQEIVDKVKPQLEEKTGETYGKLEAVQYKTQVVNENVYRVTQGTNYYIKVRAGDNKYMHLKVFKSLKYRHRLTYEEDLVLTGYQVDKNKDDELTGF
binding: binds

B10: clone 286 (designed binder)
chain: MIPGGLSEAKPATPEIQEIVDKVKPQLEEKTGETYGKLEAVQYKTQVVSWGKVSNELGTNYYIKVRAGDNKYMHLKVFKSLIEYQSPALYEDLVLTGYQVDKNKDDELTGF
binding: binds

B11: clone 287 (designed binder)
chain: MIPGGLSEAKPATPEIQEIVDKVKPQLEEKTGETYGKLEAVQYKTQVVLEDEWWSILGTNYYIKVRAGDNKYMHLKVFKSLPDAPAYSKSEDLVLTGYQVDKNKDDELTGF
binding: binds

B13: clone 309 (designed binder)
chain: MIPGGLSEAKPATPEIQEIVDKVKPQLEEKTGETYGKLEAVQYKTQVVAFHKLGWILGTNYYIKVRAGDNKYMHLKVFKSLGDESHKWHKEDLVLTGYQVDKNKDDELTGF
binding: binds

B14: clone 288 (designed binder)
chain: MIPGGLSEAKPATPEIQEIVDKVKPQLEEKTGETYGKLEAVQYKTQVVYYKLVTWWRGTNYYIKVRAGDNKYMHLKVFKSLPDLNYEVTLEDLVLTGYQVDKNKDDELTGF
binding: binds

B15: clone 297 (designed binder)
chain: MIPGGLSEAKPATPEIQEIVDKVKPQLEEKTGETYGKLEAVQYKTQVVWHKIVTQWPGTNYYIKVRAGDNKYMHLKVFKSLYAQRGEVYFEDLVLTGYQVDKNKDDELTGF
binding: binds

B16: clone 282 (designed binder)
chain: MIPGGLSEAKPATPEIQEIVDKVKPQLEEKTGETYGKLEAVQYKTQVVHVKIVTWWKGTNYYIKVRAGDNKYMHLKVFKSLYNPKPGIDNEDLVLTGYQVDKNKDDELTGF
binding: binds

B18: clone 311 (designed binder)
chain: MIPGGLSEAKPATPEIQEIVDKVKPQLEEKTGETYGKLEAVQYKTQVVASQRLWIIYGTNYYIKVRAGDNKYMHLKVFKSLSDWRHHGGWEDLVLTGYQVDKNKDDELTGF
binding: binds

B19: clone 292 (designed binder)
chain: MIPGGLSEAKPATPEIQEIVDKVKPQLEEKTGETYGKLEAVQYKTQVVHFGIRYAHVGTNYYIKVRAGDNKYMHLKVFKSLDYPRHHQDQEDLVLTGYQVDKNKDDELTGF
binding: binds

B22: clone 307 (designed binder)
chain: MIPGGLSEAKPATPEIQEIVDKVKPQLEEKTGETYGKLEAVQYKTQVVQVKKWWEYFVTNYYIKVRAGDNKYMHLKVFKSLQLLSHQWTEEDLVLTGYQVDKNKDDELTGF
binding: binds

B23: clone 299 (designed binder)
chain: MIPGGLSEAKPATPEIQEIVDKVKPQLEEKTGETYGKLEAVQYKTQVVLVFDASTSAGTNYYIKVRAGDNKYMHLKVFKSLPWEFRGDHKEDLVLTGYQVDKNKDDELTGF
binding: binds

B24: clone 290 (designed binder)
chain: MIPGGLSEAKPATPEIQEIVDKVKPQLEEKTGETYGKLEAVQYKTQVVQEYLWKQYIGTNYYIKVRAGDNKYMHLKVFKSLRWQYRHPQTEDLVLTGYQVDKNKDDELTGF
binding: binds

B27: clone 294 (designed binder)
chain: MIPGGLSEAKPATPEIQEIVDKVKPQLEEKTGETYGKLEAVQYKTQVVGNAAWGSFAGTNYYIKVRAGDNKYMHLKVFKSLPFFYRKDNPEDLVLTGYQVDKNKDDELTGF
binding: binds

B28: clone 308 (designed binder)
chain: MIPGGLSEAKPATPEIQEIVDKVKPQLEEKTGETYGKLEAVQYKTQVVIGQISEQQWGTNYYIKVRAGDNKYMHLKVFKSLHRYWTRDVTEDLVLTGYQVDKNKDDELTGF
binding: binds

B29: clone 232 (designed binder)
chain: MIPGGLSEAKPATPEIQEIVDKVKPQLEEKTGETYGKLEAVQYKTQVVVHGPHLEQAGTNYYIKVRAGDNKYMHLKVFKSLGHAFYFAFVEDLVLTGYQVDKNKDDELTGF
binding: binds

B30: clone 304 (designed binder)
chain: MIPGGLSEAKPATPEIQEIVDKVKPQLEEKTGETYGKLEAVQYKTQVVAWITPVNVLGTNYYIKVRAGDNKYMHLKVFKSLDEIFHGAYNEDLVLTGYQVDKNKDDELTGF
binding: binds

B31: clone 291 (designed binder)
chain: MIPGGLSEAKPATPEIQEIVDKVKPQLEEKTGETYGKLEAVQYKTQVVFNKDLFLGWGTNYYIKVRAGDNKYMHLKVFKSLRFSAGEEWEEDLVLTGYQVDKNKDDELTGF
binding: binds

B32: clone 300 (designed binder)
chain: MIPGGLSEAKPATPEIQEIVDKVKPQLEEKTGETYGKLEAVQYKTQVVQYAEFLEHIGTNYYIKVRAGDNKYMHLKVFKSLGWSHYFQYLEDLVLTGYQVDKNKDDELTGF
binding: binds
